This is one part of the list. Residues, ends and D or L forms follow the SMILES beside them. *: point of attachment. Cbz = O=C(OCc1ccccc1)*
What was measured:
Assay in all cases: log2 fold change, soluble protein after heating vs DMSO (PISA); higher = thermal stabilisation; K562 cells, 10 uM, 30 min; active = over 0.2 and 3.5 SD of the protein, either way, in both replicates (recomputed)
[1] = compound: C#Cc1cccc(Nc2ncnc3cc(OCCOC)c(OCCOC)cc23)c1 [erlotinib]
How it was run: (§1)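 K562 cells at 2×10^6 cells/mL were exposed to 10 μM compound for 30 min, then aliquots were heated for 3 min across 48°C-58°C, pooled, and extracted in PBS containing 0.5% NP-40 at 4°C. The supernatant after 21,000xg for 90 min was taken as soluble protein and measured by TMTpro 16plex LC-MS/MS with channel sums equalised. Thermal stability is reported relative to control samples, with values from duplicates. Fold changes are given on a log2 scale.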

By UniProt entry, the sequences of proteins in these tests, tags left out. Where a name states a change or a piece, a line headed by the entry shows the natural chain unless it says otherwise.
UniProt Q8IWF6: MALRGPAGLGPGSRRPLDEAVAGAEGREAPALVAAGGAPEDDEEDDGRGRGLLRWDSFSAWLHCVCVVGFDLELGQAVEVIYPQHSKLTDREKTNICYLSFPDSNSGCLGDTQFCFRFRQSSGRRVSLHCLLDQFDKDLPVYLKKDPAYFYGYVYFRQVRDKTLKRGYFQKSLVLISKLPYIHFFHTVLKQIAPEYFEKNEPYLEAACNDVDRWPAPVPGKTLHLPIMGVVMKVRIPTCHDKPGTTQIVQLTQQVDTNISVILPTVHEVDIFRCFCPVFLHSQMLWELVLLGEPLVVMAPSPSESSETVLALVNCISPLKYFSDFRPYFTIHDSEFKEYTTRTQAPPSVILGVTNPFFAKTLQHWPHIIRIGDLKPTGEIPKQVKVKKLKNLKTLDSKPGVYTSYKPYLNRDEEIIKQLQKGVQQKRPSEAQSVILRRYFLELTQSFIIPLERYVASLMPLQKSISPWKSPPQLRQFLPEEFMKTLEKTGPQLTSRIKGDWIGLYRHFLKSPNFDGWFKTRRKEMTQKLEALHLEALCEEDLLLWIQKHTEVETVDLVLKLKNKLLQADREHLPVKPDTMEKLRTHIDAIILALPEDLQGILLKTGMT
UniProt O00571: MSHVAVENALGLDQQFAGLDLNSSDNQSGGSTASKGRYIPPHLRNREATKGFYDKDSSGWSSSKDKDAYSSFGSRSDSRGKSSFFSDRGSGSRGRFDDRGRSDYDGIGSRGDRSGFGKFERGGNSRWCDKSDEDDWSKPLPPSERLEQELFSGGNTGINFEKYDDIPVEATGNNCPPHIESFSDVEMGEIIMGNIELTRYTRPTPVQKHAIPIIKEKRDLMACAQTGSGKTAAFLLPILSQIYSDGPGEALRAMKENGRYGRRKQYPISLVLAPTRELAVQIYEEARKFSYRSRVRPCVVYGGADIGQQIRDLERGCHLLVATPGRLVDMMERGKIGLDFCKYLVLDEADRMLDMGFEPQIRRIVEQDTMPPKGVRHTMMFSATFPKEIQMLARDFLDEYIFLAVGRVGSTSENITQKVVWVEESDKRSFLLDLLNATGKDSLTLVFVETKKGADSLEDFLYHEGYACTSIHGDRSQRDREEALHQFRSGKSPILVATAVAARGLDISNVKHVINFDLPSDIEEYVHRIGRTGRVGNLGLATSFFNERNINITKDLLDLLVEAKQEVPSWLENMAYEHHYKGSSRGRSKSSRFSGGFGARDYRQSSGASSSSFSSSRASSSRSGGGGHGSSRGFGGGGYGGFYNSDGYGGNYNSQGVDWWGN
UniProt Q9UBM7: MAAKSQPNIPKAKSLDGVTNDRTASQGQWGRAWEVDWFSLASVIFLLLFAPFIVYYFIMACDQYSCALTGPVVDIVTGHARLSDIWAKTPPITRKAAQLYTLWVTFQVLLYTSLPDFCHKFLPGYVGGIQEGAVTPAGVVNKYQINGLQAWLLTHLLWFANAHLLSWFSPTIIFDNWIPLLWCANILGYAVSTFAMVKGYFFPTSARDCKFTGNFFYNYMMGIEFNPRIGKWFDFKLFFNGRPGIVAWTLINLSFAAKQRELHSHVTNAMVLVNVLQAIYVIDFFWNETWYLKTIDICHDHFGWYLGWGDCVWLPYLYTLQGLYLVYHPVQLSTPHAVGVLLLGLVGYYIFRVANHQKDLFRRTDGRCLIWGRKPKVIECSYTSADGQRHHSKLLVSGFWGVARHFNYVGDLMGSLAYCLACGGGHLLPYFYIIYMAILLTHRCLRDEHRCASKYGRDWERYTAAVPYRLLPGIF
UniProt Q9Y6V7: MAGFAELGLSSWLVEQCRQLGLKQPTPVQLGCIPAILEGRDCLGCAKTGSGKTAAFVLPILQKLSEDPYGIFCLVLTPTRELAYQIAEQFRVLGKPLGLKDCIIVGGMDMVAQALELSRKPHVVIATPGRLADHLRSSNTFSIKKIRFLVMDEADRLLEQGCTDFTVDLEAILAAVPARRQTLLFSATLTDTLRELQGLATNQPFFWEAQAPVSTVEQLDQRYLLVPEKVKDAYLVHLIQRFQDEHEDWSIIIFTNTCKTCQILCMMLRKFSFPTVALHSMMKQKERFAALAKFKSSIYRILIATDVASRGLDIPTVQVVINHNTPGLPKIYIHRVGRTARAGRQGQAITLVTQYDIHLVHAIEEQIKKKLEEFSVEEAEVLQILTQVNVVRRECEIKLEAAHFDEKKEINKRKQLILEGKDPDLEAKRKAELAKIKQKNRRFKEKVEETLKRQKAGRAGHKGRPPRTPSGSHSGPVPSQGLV
UniProt Q15398: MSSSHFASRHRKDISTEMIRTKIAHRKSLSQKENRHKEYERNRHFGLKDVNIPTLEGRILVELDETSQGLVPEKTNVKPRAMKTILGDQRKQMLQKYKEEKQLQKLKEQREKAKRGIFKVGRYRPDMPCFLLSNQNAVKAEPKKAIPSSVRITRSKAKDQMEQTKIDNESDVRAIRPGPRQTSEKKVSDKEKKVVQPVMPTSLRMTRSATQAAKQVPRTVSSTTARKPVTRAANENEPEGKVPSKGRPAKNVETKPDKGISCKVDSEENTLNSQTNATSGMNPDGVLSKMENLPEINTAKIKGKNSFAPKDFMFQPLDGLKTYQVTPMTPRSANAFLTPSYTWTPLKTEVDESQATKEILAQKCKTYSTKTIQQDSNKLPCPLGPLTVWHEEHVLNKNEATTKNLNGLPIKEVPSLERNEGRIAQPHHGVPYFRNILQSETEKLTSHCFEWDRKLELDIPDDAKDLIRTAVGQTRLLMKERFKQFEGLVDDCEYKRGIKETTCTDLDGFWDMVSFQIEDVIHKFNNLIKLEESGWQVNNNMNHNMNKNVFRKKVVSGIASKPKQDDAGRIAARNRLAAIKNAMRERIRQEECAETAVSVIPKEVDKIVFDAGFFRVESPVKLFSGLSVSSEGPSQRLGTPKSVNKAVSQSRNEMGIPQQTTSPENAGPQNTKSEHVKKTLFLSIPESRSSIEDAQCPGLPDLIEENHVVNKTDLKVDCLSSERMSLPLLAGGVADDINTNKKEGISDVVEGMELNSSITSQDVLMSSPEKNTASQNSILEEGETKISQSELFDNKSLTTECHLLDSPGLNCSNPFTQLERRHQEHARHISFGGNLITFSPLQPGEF
UniProt Q96GE9: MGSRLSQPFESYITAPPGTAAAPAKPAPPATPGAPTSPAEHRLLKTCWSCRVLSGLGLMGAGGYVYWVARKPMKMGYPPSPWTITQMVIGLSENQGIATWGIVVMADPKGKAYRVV
UniProt P49366: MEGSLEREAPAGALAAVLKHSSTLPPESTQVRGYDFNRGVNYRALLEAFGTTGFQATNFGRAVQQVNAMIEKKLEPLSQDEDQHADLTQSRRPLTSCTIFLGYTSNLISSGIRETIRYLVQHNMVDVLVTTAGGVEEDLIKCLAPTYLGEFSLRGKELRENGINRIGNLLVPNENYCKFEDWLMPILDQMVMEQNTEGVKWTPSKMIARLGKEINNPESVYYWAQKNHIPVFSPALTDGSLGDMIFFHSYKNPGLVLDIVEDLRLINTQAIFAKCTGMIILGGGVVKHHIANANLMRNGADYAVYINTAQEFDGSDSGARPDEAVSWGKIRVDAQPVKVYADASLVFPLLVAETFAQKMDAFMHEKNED

[2] = compound: C/C(=N\NC(=O)C1=CC(=CC=C1)S(=O)(=O)N2CCOCC2)/C3=C(C=CC(=C3)Cl)O
How it was run: as §1

[3] = compound: C1=CC(=C(C=C1Cl)C2=NC3=NC=CN=C3C(=N2)NC4=CC=NC=C4)F
How it was run: as §1

[4] = compound: C1=CC(=CC=C1C2=NC3=C(N2)C=C(C=C3)C(=O)N)OC4=CC=C(C=C4)Cl
How it was run: as §1

[5] = compound: C1=CC2=C(C=CC(=C2)/C=C\3/C(=O)NC(=NCC4=CC=CS4)S3)N=C1
How it was run: as §1

[6] = compound: C1=CC2=NC=CN=C2C=C1/C=C/3\C(=O)NC(=O)S3
How it was run: as §1

[7] = compound: C1=CC=C(C=C1)C2=NC(=C(N2)C3=CC=NC=C3)C4=CC(=C(C=C4)Cl)O
How it was run: as §1

[8] = compound: C1=CC=C2C(=C1)C3=NNC4=CC=CC(=C43)C2=O
How it was run: as §1

[9] = compound: C1CCN(C1)C(=O)NC2=CC=CC(=C2)NC3=NC=C(C(=N3)NCCC4=CN=CN4)Br
How it was run: as §1

[10] = compound: C1CN(CCC1(CC2=CC=C(C=C2)Cl)N)C3=NC=NC4=C3C=CN4
How it was run: as §1

[11] = compound: C1COCCN1CCN2C3=CC=CC=C3N=C2NC(=O)C4=CC(=CC=C4)[N+](=O)[O-] [IRAK-1-4 Inhibitor I]
How it was run: as §1

[12] = compound: C=CC(=O)N1CCC[C@@H](n2nc(-c3ccc(Oc4ccccc4)cc3)c3c(N)ncnc32)C1 [ibrutinib]
How it was run: as §1

[13] = compound: CC(=O)c1cnc2ccc(-c3cc(Cl)c(O)c(Cl)c3)nc2c1N[C@H]1CC[C@H](CN(C)C)CC1
How it was run: as §1

[14] = compound: CC(C)(C)Cn1c(N)nc2ccc(-c3[nH]c(C(C)(C)C)nc3-c3ccc(F)cc3)nc21 [ralimetinib]
How it was run: as §1

[15] = compound: CC(C)(O)CC(=O)NCCn1ccc2ncnc(Nc3ccc(Oc4cccc(C(F)(F)F)c4)c(Cl)c3)c21
How it was run: as §1

[16] = compound: CC(C)C1=C2N=C(C=C(N2N=C1)NCC3=CC=CC=C3)NCCCCCCN
How it was run: as §1

[17] = compound: CC(C)C[C@@H](C=O)NC(=O)[C@H](CC(C)C)NC(=O)[C@H](CC(C)C)NC(=O)OCc1ccccc1
How it was run: as §1

[18] = compound: CC(C)N(C[C@H]1O[C@@H](n2cnc3c(N)ncnc32)[C@H](O)[C@@H]1O)[C@H]1C[C@@H](CCc2nc3cc(C(C)(C)C)ccc3[nH]2)C1 [pinometostat]
How it was run: as §1

[19] = compound: CC1=C(C(CC(=O)N1)C2=CC=C(C=C2)C(F)(F)F)C(=O)NC3=C(C=C4C(=C3)C=NN4)F
How it was run: as §1

[20] = compound: CC1=C(C2=C(C=C1)C(=O)C3=CC=CC=C3N2CCCN)C
How it was run: as §1

Row | Target | log2 fold change [1] | log2 fold change [2] | log2 fold change [3] | log2 fold change [4] | log2 fold change [5] | log2 fold change [6] | log2 fold change [7] | log2 fold change [8] | log2 fold change [9] | log2 fold change [10] | log2 fold change [11] | log2 fold change [12] | log2 fold change [13] | log2 fold change [14] | log2 fold change [15] | log2 fold change [16] | log2 fold change [17] | log2 fold change [18] | log2 fold change [19] | log2 fold change [20]
1 | DENND6A (UniProt Q8IWF6) | inactive: 0.04 | inactive: 0.031 | inactive: 0.091 | inactive: -0.036 | inactive: 0.028 | inactive: -0.06 | inactive: -0.004 | inactive: -0.054 | inactive: 0.013 | inactive: 0.135 | inactive: 0 | inactive: 0.128 | inactive: -0.105 | inactive: 0.018 | inactive: -0.064 | inactive: -0.127 | inactive: 0.191 | inactive: -0.011 | inactive: -0.018 | inactive: 0.122
2 | DDX3X (UniProt O00571) | inactive: 0.076 | inactive: -0.034 | inactive: -0.781 | inactive: 0.054 | inactive: 0.039 | inactive: -0.031 | inactive: -0.129 | inactive: 0.094 | inactive: -0.18 | inactive: -0.39 | inactive: -0.183 | inactive: 0.045 | inactive: -0.046 | inactive: 0.386 | inactive: 0.129 | inactive: -0.127 | inactive: 0.308 | inactive: 0.668 | inactive: 0.016 | inactive: -0.103
3 | DHCR7 (UniProt Q9UBM7) | inactive: 0.113 | inactive: 0.041 | inactive: -0.095 | inactive: -0.056 | inactive: 0.071 | inactive: 0.022 | inactive: 0.038 | inactive: -0.003 | inactive: -0.037 | active: 0.623 | inactive: -0.045 | inactive: -0.091 | inactive: -0.085 | inactive: 0.056 | inactive: 0.067 | inactive: -0.021 | inactive: 0.011 | inactive: 0.199 | – | inactive: 0.15
4 | DDX49 (UniProt Q9Y6V7) | inactive: -0.083 | inactive: -0.018 | inactive: -0.171 | inactive: 0.101 | inactive: -0.02 | inactive: 0.045 | inactive: -0.015 | inactive: 0.022 | inactive: -0.04 | inactive: -0.2 | inactive: -0.171 | inactive: 0.008 | inactive: 0.059 | inactive: 0.031 | inactive: -0.001 | inactive: 0.039 | inactive: 0.07 | inactive: 0.179 | inactive: 0.003 | inactive: 0.027
5 | DLGAP5 (UniProt Q15398) | inactive: 0.06 | inactive: -0.025 | inactive: -0.071 | inactive: 0.01 | inactive: 0.048 | inactive: 0.042 | inactive: -0.024 | inactive: -0.052 | inactive: -0.022 | inactive: -0.118 | inactive: -0.005 | inactive: -0.04 | inactive: -0.044 | inactive: 0.074 | inactive: 0 | inactive: -0.202 | inactive: 0.029 | inactive: 0.088 | inactive: 0.029 | inactive: 0.004
6 | DMAC1 (UniProt Q96GE9) | inactive: 0.041 | inactive: 0.076 | inactive: 0.128 | inactive: -0.002 | inactive: 0.059 | inactive: -0.004 | inactive: -0.04 | inactive: -0.021 | inactive: 0.008 | inactive: 0.072 | inactive: 0.018 | inactive: 0.048 | inactive: 0.034 | inactive: -0.011 | inactive: 0.072 | inactive: 0.019 | inactive: 0.067 | inactive: -0.002 | – | inactive: -0.013
7 | DMD (UniProt P11532) | inactive: 0.013 | inactive: 0.03 | inactive: -0.001 | inactive: -0.031 | inactive: -0.007 | inactive: 0.004 | inactive: -0.041 | inactive: -0.016 | inactive: -0.018 | inactive: 0.05 | inactive: 0.015 | inactive: -0.013 | inactive: -0.108 | inactive: -0.032 | inactive: 0.022 | inactive: -0.025 | inactive: -0.006 | inactive: 0.002 | inactive: 0.005 | inactive: 0.016
8 | DHPS (UniProt P49366) | inactive: 0 | inactive: -0.01 | inactive: 0.088 | inactive: -0.002 | inactive: -0.034 | inactive: 0.033 | inactive: 0.024 | inactive: -0.004 | inactive: -0.007 | inactive: 0.021 | inactive: 0.011 | inactive: -0.004 | inactive: 0.02 | inactive: -0.04 | inactive: -0.043 | inactive: 0.047 | inactive: -0.012 | inactive: -0.095 | – | inactive: -0.027

Whole records, quoted from the list. Values in the order: log2 fold change [1]	log2 fold change [2]	log2 fold change [3]	log2 fold change [4]	log2 fold change [5]	log2 fold change [6]	log2 fold change [7]	log2 fold change [8]	log2 fold change [9]	log2 fold change [10]	log2 fold change [11]	log2 fold change [12]	log2 fold change [13]	log2 fold change [14]	log2 fold change [15]	log2 fold change [16]	log2 fold change [17]	log2 fold change [18]	log2 fold change [19]	log2 fold change [20]
DHPS (UniProt P49366) reads inactive: 0	inactive: -0.01	inactive: 0.088	inactive: -0.002	inactive: -0.034	inactive: 0.033	inactive: 0.024	inactive: -0.004	inactive: -0.007	inactive: 0.021	inactive: 0.011	inactive: -0.004	inactive: 0.02	inactive: -0.04	inactive: -0.043	inactive: 0.047	inactive: -0.012	inactive: -0.095	–	inactive: -0.027
DHCR7 (UniProt Q9UBM7) reads inactive: 0.113	inactive: 0.041	inactive: -0.095	inactive: -0.056	inactive: 0.071	inactive: 0.022	inactive: 0.038	inactive: -0.003	inactive: -0.037	active: 0.623	inactive: -0.045	inactive: -0.091	inactive: -0.085	inactive: 0.056	inactive: 0.067	inactive: -0.021	inactive: 0.011	inactive: 0.199	–	inactive: 0.15

— the supplement of paper PMC10849652
